Assay results: patent US6413537B1, “Nystatin formulation having reduced toxicity” (Wisconsin Alumni Research Foundation, priority 2000, dated 2002)
Some results were stated once for a whole list of compounds, not compound by compound.

Tested on: erythrocytes (red blood cells)
Settings: no nystatin, FIG. 1

Structure (SMILES): CCCCCCCCCCCCOS(=O)(=O)[O-].[Na+] [SLS, sodium lauryl sulfate]
- concentration of surfactant alone causing 50% hemolysis: less than 50 μg/mL
